The source of these data is paper PMC10575946.

Chains of the proteins cited; added tags and fusions are not shown.
UniProt Q9UHB6: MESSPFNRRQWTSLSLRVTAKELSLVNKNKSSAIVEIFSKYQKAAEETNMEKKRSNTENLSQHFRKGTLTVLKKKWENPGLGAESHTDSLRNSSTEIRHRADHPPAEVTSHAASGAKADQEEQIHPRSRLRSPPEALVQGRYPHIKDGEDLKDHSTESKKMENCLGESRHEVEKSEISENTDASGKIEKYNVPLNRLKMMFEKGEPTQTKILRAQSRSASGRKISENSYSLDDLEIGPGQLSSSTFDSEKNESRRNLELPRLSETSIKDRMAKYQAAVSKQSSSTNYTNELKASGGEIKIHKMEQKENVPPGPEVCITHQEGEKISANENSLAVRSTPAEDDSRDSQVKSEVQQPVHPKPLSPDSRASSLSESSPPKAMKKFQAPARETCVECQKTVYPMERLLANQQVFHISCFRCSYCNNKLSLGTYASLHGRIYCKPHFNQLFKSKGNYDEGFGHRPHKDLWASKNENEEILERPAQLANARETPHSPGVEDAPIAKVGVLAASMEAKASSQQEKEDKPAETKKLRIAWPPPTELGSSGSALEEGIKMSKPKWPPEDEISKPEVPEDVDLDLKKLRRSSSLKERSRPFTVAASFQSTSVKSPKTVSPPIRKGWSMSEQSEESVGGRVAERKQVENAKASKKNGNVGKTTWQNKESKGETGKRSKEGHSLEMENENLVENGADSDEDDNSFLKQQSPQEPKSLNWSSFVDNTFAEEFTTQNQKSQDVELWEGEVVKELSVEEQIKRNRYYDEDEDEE

The target of this test is LIMA1-FLAG (human LIM domain and actin binding 1) (human) (UniProt Q9UHB6). In words: co-IP; LIMA1-FLAG precipitated with anti-FLAG agarose beads (4 °C, 2 h) from CRL1601 cell lysates in NP40 buffer (0.5% NP40 in PBS, 5 mmol/L EDTA and EGTA), NPC1L1 variants found by immunoblotting; cells treated for 10 min before harvest with vehicle, BA mixture, GDCA, TDCA, TCA or 3% CDX. (In general: A western blot detects proteins with antibodies after separation by electrophoresis.)

No constants are given. Whether binding was seen depends on the method and setting. In cells and extracts the contact can be indirect. Some binding calls cover weakened binding; strength is not graded here. Where a sequence is shown, tags or fusion partners need not be part of it.

B1: NPC1L1-3×Myc-EGFP (human Niemann-Pick C1-like 1, wild type) (protein, UniProt Q9UHC9-2 22-1332)
chain: EPYTTIHQPGYCAFYDECGKNPELSGSLMTLSNVSCLSNTPARKITGDHLILLQKICPRLYTGPNTQACCSAKQLVSLEASLSITKALLTRCPACSDNFVNLHCHNTCSPNQSLFINVTRVAQLGAGQLPAVVAYEAFYQHSFAEQSYDSCSRVRVPAAATLAVGTMCGVYGSALCNAQRWLNFQGDTGNGLAPLDITFHLLEPGQAVGSGIQPLNEGVARCNESQGDDVATCSCQDCAASCPAIARPQALDSTFYLGQMPGSLVLIIILCSVFAVVTILLVGFRVAPARDKSKMVDPKKGTSLSDKLSFSTHTLLGQFFQGWGTWVASWPLTILVLSVIPVVALAAGLVFTELTTDPVELWSAPNSQARSEKAFHDQHFGPFFRTNQVILTAPNRSSYRYDSLLLGPKNFSGILDLDLLLELLELQERLRHLQVWSPEAQRNISLQDICYAPLNPDNTSLYDCCINSLLQYFQNNRTLLLLTANQTLMGQTSQVDWKDHFLYCANAPLTFKDGTALALSCMADYGAPVFPFLAIGGYKGKDYSEAEALIMTFSLNNYPAGDPRLAQAKLWEEAFLEEMRAFQRRMAGMFQVTFMAERSLEDEINRTTAEDLPIFATSYIVIFLYISLALGSYSSWSRVMVDSKATLGLGGVAVVLGAVMAAMGFFSYLGIRSSLVILQVVPFLVLSVGADNIFIFVLEYQRLPRRPGEPREVHIGRALGRVAPSMLLCSLSEAICFFLGALTPMPAVRTFALTSGLAVILDFLLQMSAFVALLSLDSKRQEASRLDVCCCVKPQELPPPGQGEGLLLGFFQKAYAPFLLHWITRGVVLLLFLALFGVSLYSMCHISVGLDQELALPKDSYLLDYFLFLNRYFEVGAPVYFVTTLGYNFSSEAGMNAICSSAGCNNFSFTQKIQYATEFPEQSYLAIPASSWVDDFIDWLTPSSCCRLYISGPNKDKFCPSTVNSLNCLKNCMSITMGSVRPSVEQFHKYLPWFLNDRPNIKCPKGGLAAYSTSVNLTSDGQVLTSRFMAYHKPLKNSQDYTEALRAARELAANITADLRKVPGTDPAFEVFPYTITNVFYEQYLTILPEGLFMLSLCLVPTFAVSCLLLGLDLRSGLLNLLSIVMILVDTVGFMALWGISYNAVSLINLVSAVGMSVEFVSHITRSFAISTKPTWLERAKEATISMGSAVFAGVAMTNLPGILVLGLAKAQLIQIFFFRLNLLITLLGLLHGLVFLPVILSYVGPDVNPALALEQKRAEEAVAAVMVASCPNHPSRVSTADNIYVNHSFEGSIKGAGAISNFLPNNGRQF
Regarding B1, the binding entry is reported as “binds”.

B2: NPC1L1-3×Myc-EGFP-A1272LAL→4E (protein, UniProt Q9UHC9-2 22-1332)
chain: EPYTTIHQPGYCAFYDECGKNPELSGSLMTLSNVSCLSNTPARKITGDHLILLQKICPRLYTGPNTQACCSAKQLVSLEASLSITKALLTRCPACSDNFVNLHCHNTCSPNQSLFINVTRVAQLGAGQLPAVVAYEAFYQHSFAEQSYDSCSRVRVPAAATLAVGTMCGVYGSALCNAQRWLNFQGDTGNGLAPLDITFHLLEPGQAVGSGIQPLNEGVARCNESQGDDVATCSCQDCAASCPAIARPQALDSTFYLGQMPGSLVLIIILCSVFAVVTILLVGFRVAPARDKSKMVDPKKGTSLSDKLSFSTHTLLGQFFQGWGTWVASWPLTILVLSVIPVVALAAGLVFTELTTDPVELWSAPNSQARSEKAFHDQHFGPFFRTNQVILTAPNRSSYRYDSLLLGPKNFSGILDLDLLLELLELQERLRHLQVWSPEAQRNISLQDICYAPLNPDNTSLYDCCINSLLQYFQNNRTLLLLTANQTLMGQTSQVDWKDHFLYCANAPLTFKDGTALALSCMADYGAPVFPFLAIGGYKGKDYSEAEALIMTFSLNNYPAGDPRLAQAKLWEEAFLEEMRAFQRRMAGMFQVTFMAERSLEDEINRTTAEDLPIFATSYIVIFLYISLALGSYSSWSRVMVDSKATLGLGGVAVVLGAVMAAMGFFSYLGIRSSLVILQVVPFLVLSVGADNIFIFVLEYQRLPRRPGEPREVHIGRALGRVAPSMLLCSLSEAICFFLGALTPMPAVRTFALTSGLAVILDFLLQMSAFVALLSLDSKRQEASRLDVCCCVKPQELPPPGQGEGLLLGFFQKAYAPFLLHWITRGVVLLLFLALFGVSLYSMCHISVGLDQELALPKDSYLLDYFLFLNRYFEVGAPVYFVTTLGYNFSSEAGMNAICSSAGCNNFSFTQKIQYATEFPEQSYLAIPASSWVDDFIDWLTPSSCCRLYISGPNKDKFCPSTVNSLNCLKNCMSITMGSVRPSVEQFHKYLPWFLNDRPNIKCPKGGLAAYSTSVNLTSDGQVLTSRFMAYHKPLKNSQDYTEALRAARELAANITADLRKVPGTDPAFEVFPYTITNVFYEQYLTILPEGLFMLSLCLVPTFAVSCLLLGLDLRSGLLNLLSIVMILVDTVGFMALWGISYNAVSLINLVSAVGMSVEFVSHITRSFAISTKPTWLERAKEATISMGSAVFAGVAMTNLPGILVLGLAKAQLIQIFFFRLNLLITLLGLLHGLVFLPVILSYVGPDVNPEEEEEQKRAEEAVAAVMVASCPNHPSRVSTADNIYVNHSFEGSIKGAGAISNFLPNNGRQF
As for B2, the binding entry is given as “binds”.

B3: NPC1L1-3×Myc-EGFP-ΔA1272LAL (protein, UniProt Q9UHC9-2)
chain: EPYTTIHQPGYCAFYDECGKNPELSGSLMTLSNVSCLSNTPARKITGDHLILLQKICPRLYTGPNTQACCSAKQLVSLEASLSITKALLTRCPACSDNFVNLHCHNTCSPNQSLFINVTRVAQLGAGQLPAVVAYEAFYQHSFAEQSYDSCSRVRVPAAATLAVGTMCGVYGSALCNAQRWLNFQGDTGNGLAPLDITFHLLEPGQAVGSGIQPLNEGVARCNESQGDDVATCSCQDCAASCPAIARPQALDSTFYLGQMPGSLVLIIILCSVFAVVTILLVGFRVAPARDKSKMVDPKKGTSLSDKLSFSTHTLLGQFFQGWGTWVASWPLTILVLSVIPVVALAAGLVFTELTTDPVELWSAPNSQARSEKAFHDQHFGPFFRTNQVILTAPNRSSYRYDSLLLGPKNFSGILDLDLLLELLELQERLRHLQVWSPEAQRNISLQDICYAPLNPDNTSLYDCCINSLLQYFQNNRTLLLLTANQTLMGQTSQVDWKDHFLYCANAPLTFKDGTALALSCMADYGAPVFPFLAIGGYKGKDYSEAEALIMTFSLNNYPAGDPRLAQAKLWEEAFLEEMRAFQRRMAGMFQVTFMAERSLEDEINRTTAEDLPIFATSYIVIFLYISLALGSYSSWSRVMVDSKATLGLGGVAVVLGAVMAAMGFFSYLGIRSSLVILQVVPFLVLSVGADNIFIFVLEYQRLPRRPGEPREVHIGRALGRVAPSMLLCSLSEAICFFLGALTPMPAVRTFALTSGLAVILDFLLQMSAFVALLSLDSKRQEASRLDVCCCVKPQELPPPGQGEGLLLGFFQKAYAPFLLHWITRGVVLLLFLALFGVSLYSMCHISVGLDQELALPKDSYLLDYFLFLNRYFEVGAPVYFVTTLGYNFSSEAGMNAICSSAGCNNFSFTQKIQYATEFPEQSYLAIPASSWVDDFIDWLTPSSCCRLYISGPNKDKFCPSTVNSLNCLKNCMSITMGSVRPSVEQFHKYLPWFLNDRPNIKCPKGGLAAYSTSVNLTSDGQVLTSRFMAYHKPLKNSQDYTEALRAARELAANITADLRKVPGTDPAFEVFPYTITNVFYEQYLTILPEGLFMLSLCLVPTFAVSCLLLGLDLRSGLLNLLSIVMILVDTVGFMALWGISYNAVSLINLVSAVGMSVEFVSHITRSFAISTKPTWLERAKEATISMGSAVFAGVAMTNLPGILVLGLAKAQLIQIFFFRLNLLITLLGLLHGLVFLPVILSYVGPDVNPEQKRAEEAVAAVMVASCPNHPSRVSTADNIYVNHSFEGSIKGAGAISNFLPNNGRQF
Take B3: the binding result was “binds”.
